Experimental data reported in PubChem BioAssay AID248 (DTP/NCI, 2004).
The list does not hold the whole screen: it gathers tests that were run many times, whatever their T/C, doses with no T/C, and many T/C values between a quarter and a half above the control. Other doses and runs of a compound stand elsewhere. T/C is the treated group as % of the vehicle group. Some doses have a count of surviving animals in place of a T/C: the source holds a T/C of zero for them, seemingly a mark for toxic or unscored doses. Some doses without a T/C left all or most animals alive at the check, yet need not have been tolerated: survival well below the control is almost never listed, so the zero probably covers shortened survival too. Survivors were counted at the toxicity check, usually on the fifth day, unless a day is given; later deaths do not show. Schedules are NCI's codes, read here as Q, the interval in days (D) or hours (H), X, the number of doses. Some schedules carry Z or #; the key to these is not given. Brackets with × give the number of equal values in this list. Where survival is the endpoint, this PubChem deposit counts one and a half times the control or more as active, and values a quarter to a half above the control carry no call in these data; other NCI protocols may use other cut-offs. Some doses were run more than once; the values are given in rising order. Some T/C values carry the count of animals alive at the toxicity check (mostly the fifth day); where none is given, no animal had died by that day.

Tested on: L1210 leukemia ip in BDF1 mice, survival T/C
Assay: NCI In Vivo Anticancer Drug Screen. Data for tumor model L1210 Leukemia (intraperitoneal) in B6D2F1 (BDF1) mice
Conditions: T/C endpoint: mean survival time, higher T/C = longer survival
[1] = dose: 200.0 mg/kg/injection, schedule: Q04DX003 (ip), vehicle: Klucel (hydroxypropylcellulose) (HPC)
[2] = dose: 400.0 mg/kg/injection, schedule: Q04DX003 (ip), vehicle: Klucel (hydroxypropylcellulose) (HPC)
[3] = dose: 200.0 mg/kg/injection, schedule: Q04DX003 (ip), vehicle: saline with Tween-80
[4] = dose: 200.0 mg/kg/injection, schedule: Q01DX009 (ip), vehicle: saline with Tween-80
[5] = dose: 400.0 mg/kg/injection, schedule: Q01DX009 (ip), vehicle: saline with Tween-80
[6] = dose: 300.0 mg/kg/injection, schedule: Q01DX001 (ip), vehicle: saline
[7] = dose: 400.0 mg/kg/injection, schedule: Q01DX001 (ip), vehicle: saline
[8] = dose: 50.0 mg/kg/injection, schedule: Q01DX Z (ip), vehicle: saline
[9] = dose: 200.0 mg/kg/injection, schedule: Q01DX009 (ip), vehicle: saline
[10] = dose: 400.0 mg/kg/injection, schedule: Q01DX009 (ip), vehicle: saline
[11] = dose: 100.0 mg/kg/injection, schedule: Q04DX003 (ip), vehicle: saline with Tween-80
[12] = dose: 400.0 mg/kg/injection, schedule: Q04DX003 (ip), vehicle: saline with Tween-80

With `Cn1cnc([N+](=O)[O-])c1[Se]c1nc(N)nc2c1ncn2C1CC(O)C(CO)O1` (configuration not stated) the T/C (dose: 16.5 mg/kg/injection, schedule: Q01DX009 (ip), vehicle: saline) was 143 % of control, the T/C (dose: 25.0 mg/kg/injection, schedule: Q01DX005 (ip), vehicle: saline) was 144 % of control [5 of 6 alive] and the survivor count (dose: 50.0 mg/kg/injection, schedule: Q01DX005 (ip), vehicle: saline) was 3 of 6. For the same molecule, the survivor count (dose: 100.0 mg/kg/injection, schedule: Q01DX005 (ip), vehicle: saline) was 3 of 6.
With `C=CCC[P+](c1ccccc1)(c1ccccc1)c1ccccc1` the T/C (dose: 25.0 mg/kg/injection, schedule: Q04DX003 (ip), vehicle: Klucel (hydroxypropylcellulose) (HPC)) was 125 % of control, the survivor count (dose: 100.0 mg/kg/injection, schedule: Q04DX003 (ip), vehicle: Klucel (hydroxypropylcellulose) (HPC)) was 1 of 6 and the survivor count [1] was 0 of 6. For the same molecule, the survivor count [2] was 0 of 6.
`O=c1[nH]ncc2ccc([N+](=O)[O-])cc12` was tested, and the survivor count (dose: 300.0 mg/kg/injection, schedule: Q01DX001 (ip), vehicle: other) was 2 of 6.
For `O=C(/C=C/C=C/c1ccccc1)c1ccc(Cl)cc1`, the T/C [3] was 125 % of control.
With `CCN(CC)S(=O)(=O)c1cccc([N+](=O)[O-])c1` the survivor count [4] was 6 of 6 and the survivor count [5] was 0 of 6.
With `CCOC12CC3C4=CCOC5CC(=O)N6c7ccccc7C1(CCN2C4)C6C53` (configuration not stated) the survivor count (dose: 75.0 mg/kg/injection, schedule: Q01DX001 (ip), vehicle: saline) was 3 of 6, the survivor count (dose: 150.0 mg/kg/injection, schedule: Q01DX001 (ip), vehicle: saline) was 0 of 6 and the survivor count [6] was 0 of 6.
`COc1cc(C=Nc2cc(Br)c(OC)c(Br)c2)ccc1N(CCCl)CCCl` was tested, and the T/C (dose: 44.0 mg/kg/injection, schedule: Q01DX001 (ip), vehicle: carboxymethylcellulose (CMC)) was 133 and 135 % of control, the T/C (dose: 66.0 mg/kg/injection, schedule: Q01DX001 (ip), vehicle: carboxymethylcellulose (CMC)) was 128 % of control and the T/C (dose: 100.0 mg/kg/injection, schedule: Q01DX001 (ip), vehicle: carboxymethylcellulose (CMC)) was 130 and 135 % of control. The survivor count (dose: 400.0 mg/kg/injection, schedule: Q01DX001 (ip), vehicle: carboxymethylcellulose (CMC)) was 1 of 4.
`O=S1(=O)C=CC1` was tested, and the survivor count (dose: 100.0 mg/kg/injection, schedule: Q01DX001 (ip), vehicle: saline) was 2 of 4, the survivor count (dose: 200.0 mg/kg/injection, schedule: Q01DX001 (ip), vehicle: saline) was 0 of 4 and the survivor count [7] was 0 of 4.
With `CC(C)(C)c1ccc(O)cc1` the survivor count [4] was 2 of 6 and the survivor count [5] was 0 of 6.
For `NNC(=O)CNc1ccc(F)c(C(F)(F)F)c1`, the survivor count (dose: 400.0 mg/kg/injection, schedule: Q04DX002 (ip), vehicle: Klucel (hydroxypropylcellulose) (HPC)) was 1 of 3.
In the case of `Cc1ccc(NCCN(C)C)c2c(=O)c3ccccc3sc12`, the T/C (dose: 21.0 mg/kg/injection, schedule: Q01DX Z (ip), vehicle: saline) is reported as 125 % of control, the T/C (dose: 42.0 mg/kg/injection, schedule: Q01DX Z (ip), vehicle: saline) is reported as 132 % of control and the T/C [8] is reported as 149 % of control. For the same molecule, the T/C (dose: 62.0 mg/kg/injection, schedule: Q01DX Z (ip), vehicle: saline) was 137 % of control, the T/C (dose: 75.0 mg/kg/injection, schedule: Q01DX Z (ip), vehicle: saline) was 139 % of control and the survivor count (dose: 168.0 mg/kg/injection, schedule: Q01DX Z (ip), vehicle: saline) was 0 of 6. The survivor count (dose: 250.0 mg/kg/injection, schedule: Q01DX Z (ip), vehicle: carboxymethylcellulose (CMC)) was 4 of 6, the survivor count [6] was 1 of 4 and the survivor count [7] was 1 of 4.
`CCOC(=O)c1ccc(NC(=O)Nc2ccc(OC)c([N+](=O)[O-])c2)cc1` was tested, and the survivor count [5] was 6 of 6.
`O=C(NCCCc1ccc(S(=O)(=O)F)cc1)Oc1ccc([N+](=O)[O-])cc1` was tested, and the survivor count [4] was 3 of 6 and the survivor count [5] was 2 of 6.
In the case of `CCN(CC)C(=S)SCc1ccccc1OC(=O)NC`, the survivor count [6] is reported as 0 of 6.
With `Cc1nc2cnn(C)c2nc1C` the survivor count (dose: 100.0 mg/kg/injection, schedule: Q01DX009 (ip), vehicle: saline) was 6 of 6, the survivor count [9] was 6 of 6 and the survivor count [10] was 4 of 6. The survivor count (dose: 400.0 mg/kg/injection, schedule: Q04DX003 (ip), vehicle: saline) was 1 of 6.
With `O=C(NCCCCCCNC(=O)Nc1ccc(C2=NCCCN2)cc1)Nc1ccc(C2=NCCCN2)cc1` the survivor count (dose: 50.0 mg/kg/injection, schedule: Q01DX Z (ip), vehicle: carboxymethylcellulose (CMC)) was 0 of 6.
`CC1CCNC(C(C)C)CC1` (configuration not stated) was tested, and the survivor count (dose: 400.0 mg/kg/injection, schedule: Q04DX002 (ip), vehicle: saline) was 0 of 3.
For `Cc1ncc(CO)c(C2NOCc3nccnc32)c1O` (configuration not stated), the survivor count (dose: 25.0 mg/kg/injection, schedule: Q04DX003 (ip), vehicle: saline) was 4 of 6, the survivor count (dose: 50.0 mg/kg/injection, schedule: Q04DX003 (ip), vehicle: saline) was 1 of 6 and the survivor count [11] was 0 of 6. The survivor count [3] was 0 of 6 and the survivor count [12] was 0 of 6.
`CN(C)CCC(=O)c1ccc([N+](=O)[O-])cc1` was tested, and the survivor count [11] was 0 of 6, the survivor count [3] was 0 of 6 and the survivor count [12] was 0 of 6.
For `NC(=O)N1CCN(CCCN2c3ccccc3Sc3cc(Cl)ccc32)CC1`, the survivor count (dose: 50.0 mg/kg/injection, schedule: Q01DX009 (ip), vehicle: Klucel (hydroxypropylcellulose) (HPC)) was 0 of 6, the survivor count (dose: 100.0 mg/kg/injection, schedule: Q01DX009 (ip), vehicle: Klucel (hydroxypropylcellulose) (HPC)) was 0 of 6 and the survivor count [1] was 1 of 4. The survivor count [2] was 0 of 4.
For `Nc1nc(N)c2nc3c(nc2n1)C(=O)N(c1ccc(C(=O)O)cc1)C3`, the survivor count [9] was 3 of 6 and the survivor count [10] was 0 of 6.
`Cn1cnc2c1c(=O)[nH]c(=O)n2C` was tested, and the survivor count [10] was 1 of 6.
For `CC1CCCCN1` (configuration not stated), the survivor count (dose: 12.5 mg/kg/injection, schedule: Q01DX Z (ip), vehicle: saline) was 6 of 6, the survivor count (dose: 25.0 mg/kg/injection, schedule: Q01DX Z (ip), vehicle: saline) was 6 of 6 and the survivor count [8] was 6 of 6. The survivor count (dose: 100.0 mg/kg/injection, schedule: Q01DX Z (ip), vehicle: saline) was 6 of 6.
`CC(=O)OCC1CC2CC(O)C1C2` (configuration not stated) was tested, and the survivor count (dose: 150.0 mg/kg/injection, schedule: Q01DX001 (ip), vehicle: acetone) was 1 of 6 and the survivor count (dose: 300.0 mg/kg/injection, schedule: Q01DX001 (ip), vehicle: acetone) was 0 of 6.
For `CCCCCc1ccc(C(=O)O)cc1`, the survivor count [3] was 3 of 6 and the survivor count [12] was 0 of 6.
In the case of `CCCCCCCCCCCC(O)CCCC` (configuration not stated), the survivor count (dose: 400.0 mg/kg/injection, schedule: Q01DX009 (ip), vehicle: Klucel (hydroxypropylcellulose) (HPC)) is reported as 5 of 6.
For `C=C1OC(=O)C(=O)N1CC(=O)O`, the survivor count [7] was 1 of 4.
In the case of `CCC(O)C[As](=O)(O)c1ccccc1Cl` (configuration not stated), the survivor count (dose: 25.0 mg/kg/injection, schedule: Q04DX003 (ip), vehicle: saline with Tween-80) is reported as 0 of 6, the survivor count (dose: 50.0 mg/kg/injection, schedule: Q04DX003 (ip), vehicle: saline with Tween-80) is reported as 0 of 6 and the survivor count [11] is reported as 0 of 6 (2×). The survivor count [3] was 0 of 6 and the survivor count [12] was 0 of 6.
`CC[C@H](CC[C@@H](C)[C@H]1CC[C@H]2[C@@H]3CC=C4C[C@@H](OC(=O)CN5CCNCC5)CC[C@]4(C)[C@H]3CC[C@]12C)C(C)C` was tested, and the survivor count (dose: 400.0 mg/kg/injection, schedule: Q01DX009 (ip), vehicle: water) was 0 of 6.
`CCOC(=O)CN1C(=O)NC2(CCc3ccccc3C2)C1=O` (configuration not stated) was tested, and the survivor count [11] was 0 of 6 and the survivor count [3] was 0 of 6.
With `O=c1[nH]c2ccccc2nc1C(Cl)Cl` the T/C [1] was 132 % of control and the T/C [2] was 145 % of control [2 of 3 alive].
With `O=[N+]([O-])c1ccccc1C1=Cc2cccn2-c2ccccc2S1(=O)=O` the survivor count [2] was 6 of 6.
`O=C(NC(=S)Nc1cccc(O)c1)c1cccc([N+](=O)[O-])c1` was tested, and the survivor count [5] was 6 of 6.
`O=C(O)CCC(=O)CC1CCCCC1` was tested, and the survivor count [12] was 2 of 6.
